# In PubChem BioAssay AID1347423 (Functional Genomics Laboratory (NCATS/FGL), 2020):
# About 210 (0.4%) of roughly 52,000 sequences were called active.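 The calls were made as follows: active = gene whose silencing raises cell survival under the drug, median off-target-corrected z-score across its silencing RNAs 2 or more; inactive = the rest.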 The list shows a part of the results.
# Assay: Resistance to Poly (ADP-Ribose) Polymerase inhibitor: Gene Identification via Genome-wide siRNA Screen
# Details: mouse BRCA2 R2336H ES cells, olaparib, CellTiter-Glo viability; active compounds read high
# Summary of the method: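 Mouse BRCA2 R2336H ES cells were reverse-transfected with siRNA (20 nM final), treated at 48 h with 500 nM olaparib, and read by CellTiter-Glo after 72 h. Scores: MAD-based z per siRNA, median per gene, seed off-target correction.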
row,Sequence,z-score
1,GGUCAUUCCUGUGCACCAGTT against 5830406J20Rik,inactive: 0.616
2,GGUUUUCUUCAUUCUUUCCTT against Zfp512,inactive: 1.51
3,GCUGGUCUUCUCUAUCUUATT against Olfr744,inactive: 0.189
4,GCUCAUCUACCACCUCACUTT against AI646023,inactive: -2.77
5,GGUGUUUGUUUCUAACUUCTT against Glcci1,inactive: 0.883
6,GGCCUCUUAUGUCAACCUGTT against Lamr1,inactive: -3.14
7,GCAGUUAAAUGGACUAUCATT against BC017133,inactive: -2.33
8,CGGUCCCUAAGAAACUCUGTT against A630005A06Rik,inactive: -0.717
9,GCUUCUAGUCAACAUCCAGTT against Klf15,inactive: -1.72
10,GGAACCUAACAGAGAAACATT against Prpsap2,inactive: -0.531
11,CCACGAUAGCACCUAUUUUTT against Gucy2c,inactive: 0.911
12,CCAAGGAGCAUUCUUUGGUTT against 1700024B05Rik,inactive: 1.34
13,GGCUUUUUAUUCUCAGCCUTT against 2410005O16Rik,inactive: 1.03
14,GCUAAGUCGGAUGAUAGAATT against Ttc16,inactive: -0.611
15,GCACAAAGUCGACAAUGGATT against Csnk1e,inactive: -0.661
16,UUCAUGUAGGUCUACUAUUTT against Olfr203,inactive: 1.72
17,CCUAUUCAAUUCAGUUCUATT against Slc36a4,inactive: 0.182
18,GGUGUCUACGAGUGCUUCGTT against Gpbar1,inactive: -0.151
19,CCCAAUGCAAGACAUUAAGTT against Lrrc27,inactive: 0.681
20,GGUAUAAAGACCUUUUUUCTT against Bcl7a,inactive: 0.135
21,GGGAGAAGCAAUUUUUAACTT against Gpr34,inactive: 0.386
22,CGGGAUCAGGUUUCACUGATT against BC067068,inactive: -0.289

# Already shown: an excerpt of the list.
row,Sequence,z-score
3,GCUGGUCUUCUCUAUCUUATT against Olfr744,inactive: 0.189
4,GCUCAUCUACCACCUCACUTT against AI646023,inactive: -2.77
5,GGUGUUUGUUUCUAACUUCTT against Glcci1,inactive: 0.883
6,GGCCUCUUAUGUCAACCUGTT against Lamr1,inactive: -3.14
7,GCAGUUAAAUGGACUAUCATT against BC017133,inactive: -2.33
8,CGGUCCCUAAGAAACUCUGTT against A630005A06Rik,inactive: -0.717
9,GCUUCUAGUCAACAUCCAGTT against Klf15,inactive: -1.72
10,GGAACCUAACAGAGAAACATT against Prpsap2,inactive: -0.531
11,CCACGAUAGCACCUAUUUUTT against Gucy2c,inactive: 0.911
12,CCAAGGAGCAUUCUUUGGUTT against 1700024B05Rik,inactive: 1.34
13,GGCUUUUUAUUCUCAGCCUTT against 2410005O16Rik,inactive: 1.03
14,GCUAAGUCGGAUGAUAGAATT against Ttc16,inactive: -0.611
15,GCACAAAGUCGACAAUGGATT against Csnk1e,inactive: -0.661
16,UUCAUGUAGGUCUACUAUUTT against Olfr203,inactive: 1.72
17,CCUAUUCAAUUCAGUUCUATT against Slc36a4,inactive: 0.182
18,GGUGUCUACGAGUGCUUCGTT against Gpbar1,inactive: -0.151
19,CCCAAUGCAAGACAUUAAGTT against Lrrc27,inactive: 0.681
20,GGUAUAAAGACCUUUUUUCTT against Bcl7a,inactive: 0.135
21,GGGAGAAGCAAUUUUUAACTT against Gpr34,inactive: 0.386

# (listing goes on)

row,Sequence,z-score
1,GCUGAUUUGUGGGAUCUGUTT against Trim13,inactive: -0.855
2,GGAAAGAUGGUUUUUGUUUTT against Smug1,inactive: 1.22
3,CCAAGGUUGAGAACAGAUGTT against Rom1,inactive: -1.96
4,GGUGGAAUGUCACUACACUTT against 1810009B06Rik,inactive: 0.241
5,GGGAUAUUCGAUCCUCUAGTT against Slc22a4,inactive: -1.11
6,GCCAAGAGCAUAUCUUAGUTT against Dscr1,inactive: -0.959
7,GGAGAAAAAAGCAGUGGUUTT against Tk2,inactive: -0.541
8,GGAAGUGUAAAGAGUUUAUTT against AI427515,inactive: 1.15
9,CCCGGAAUGUUUAGUAUCGTT against 5830467P10Rik,inactive: -0.788
10,GGAACUGUCACAACUGCUATT against Acat3,inactive: -0.221
11,GGCGAGUUUAUAGAAGAAATT against Phf19,inactive: 0.5
12,GGGACCGUGAAGAAAAUUUTT against 1810008K16Rik,inactive: 0.713
13,CGGGAUGACUACAAUCUGGTT against Ssbp3,inactive: 2.38
14,GGAGAAGAGAUCCCUGAACTT against Neurod2,inactive: 2
15,GGCCGCUACCAGUUCAAUUTT against Hapln2,inactive: -1.45
16,GCGGCAUAAUGGAUAUGACTT against Ckmt1,inactive: 0.669
17,GCAUCUAUGAUGCAUUUGUTT against Tlr4,inactive: 0.771
18,GGCACUAAAAGAAGAGAUCTT against 1810056O20Rik,inactive: -0.585
19,GGUUUAUAUUCUUUGUGGATT against Kcnj1,inactive: 2.42
20,GGUCACUGAAUUGUCAAUCTT against Polr3h,inactive: -0.193
21,GGUCAAUGCCUUUGAGUUUTT against Cdc42ep1,inactive: 1.29
22,GGAUAGGACAGAGAUAAAATT against Wnt2b,inactive: -0.391

row,Sequence,z-score
1,CGUGUUUGCAUAAUGUUUATT against Arih1,inactive: -0.585
2,GCAGCCUAUGGAAGAUCACTT against Tle4,inactive: 0.338
3,GCCUCAUGAAUGACCACACTT against Klk21,inactive: 0.685
4,GGACUCGUAGCGAUAAUGATT against Tmem20,inactive: 0.387
5,GGGUACGAUCGUGUGUUGUTT against Rpl8,inactive: -3.13
6,CCUGACGAUCAAAUCACUGTT against 1110012M11Rik,inactive: 0.345
7,GCUGAUUUCUCAAACAUGATT against Serpinb10,inactive: -0.311
8,GGUCAACAGAAUUGAUUCUTT against D730039F16Rik,inactive: -0.138
9,GCAUGAAGUUGCACAUCCCTT against Cox8b,inactive: -0.0409
10,GGACCAUCCAUUGUGAUCUTT against Slc7a3,inactive: -0.768
11,GGGCCUUAAUUUUCCUUUUTT against Podxl,inactive: -0.404
12,CGGCAGAAGGGUUUUUAUGTT against Rnf126,inactive: 1.26
13,CCUUGCACUCAGUCCAUGATT against 2010003O18Rik,inactive: -0.296
14,GGGAUCAACAUUUACCGAATT against Ablim1,inactive: 0.3
15,GGAACCAGUCGACUACUAUTT against Sstr1,inactive: 0.325
16,CCCGGAGUACAGUGACUUUTT against Prss11,inactive: 0.147
17,GGCAAACCUGCAAACAUCUTT against 1700049K14Rik,inactive: 0.774
18,GGCUGUGAACAAAUUUGUATT against Egfl3,inactive: -0.748
19,GGUCUCAGAAGACCUAGAUTT against Mylpf,inactive: -1.08
20,GGUUCUCUGUGUGAUAGCCTT against Ms4a10,inactive: 0.41
21,GGUCGUGGUGAAAACUAAGTT against Nsg1,inactive: -0.136
22,CCCGAGAUGAGGAACUUUUTT against A930038C07Rik,inactive: -1.45
